For the assay, the system named is HCoV-229E. Also noted: species or system Huh-7; HTS, protection from HCoV-229E induced cell death, luminescent cell viability (CellCounting-Lite 2.0), inhibition rate. Conditions: 24 h post infection, 1 h compound pre-incubation, 10 µM, inhibitor.

Structures can show the parent of a compound that is named as a salt. Where two headings read alike, the source gives them in different places. Among all 3,300 compounds or so, about 95 (3%) showed an effect of 50% or more. The list shows a part of the results.

As to `C/C=C(/C)C(=O)O[C@H]1c2cc(OC)c(OC)c(OC)c2-c2c(cc(OC)c(OC)c2OC)C[C@H](C)[C@]1(C)O` [Angeloylgomisin Q], the “229E Inhibition rate” value is 42.2%. As to `O=C1C=C(O)C(=O)c2ccccc21` [Lawsone], the “229E Inhibition rate” value is 0%. The same measure, in the same setting: the same measure for `CC(=O)O[C@@H]1CC[C@@]2(C)[C@@H](CC[C@]3(C)[C@@H]2CC=C2[C@@H]4CC(C)(C)CC[C@]4(C)CC[C@]23C)[C@@]1(C)C(=O)O` [3-O-Acetyl-α-boswellic acid]: 21.9%; for `CC(C)=C[C@H]1C[C@](C)(O)[C@@H]2[C@H]3CC[C@@H]4[C@@]5(C)CC[C@H](O[C@@H]6O[C@H](CO)[C@@H](O)[C@H](O[C@@H]7O[C@H](CO)[C@@H](O)[C@H](O)[C@H]7O)[C@H]6O[C@@H]6O[C@@H](CO)[C@H](O)[C@H]6O)C(C)(C)[C@@H]5CC[C@@]4(C)[C@@]34CO[C@@]2(C4)O1` [Bacoside A3]: 8.1%.

Take `COc1c(C)c(O)cc2[o+]c(-c3ccccc3)ccc12` [Dracorhodin perchlorate]: the “229E Inhibition rate” value amounted to 14.3%. Same read-out and setting: the same measure for `CC(=O)OCc1cocc2c(C=O)ccc1-2` [Baldrinal]: 25.5%; for `C[C@H](CC[C@@H](O[C@@H]1O[C@H](CO[C@@H]2O[C@H](CO)[C@@H](O)[C@H](O)[C@H]2O)[C@@H](O)[C@H](O)[C@H]1O[C@@H]1O[C@H](CO)[C@@H](O)[C@H](O)[C@H]1O)C(C)(C)O)[C@H]1CC[C@@]2(C)[C@@H]3CC=C4[C@@H](CC[C@H](O[C@@H]5O[C@H](CO[C@@H]6O[C@H](CO)[C@@H](O)[C@H](O)[C@H]6O)[C@@H](O)[C@H](O)[C@H]5O)C4(C)C)[C@]3(C)[C@H](O)C[C@]12C` [Mogroside V]: 0%. `CN1CCc2cc3c(cc2C1O)OCO3` (stereo not shown) [Hydrastinine]: the “229E Inhibition rate” value (229E Inhibition rate, 24 h) turned out to be 19.2%. For the compound `C[C@@H]1O[C@@H](O[C@H]2[C@H](OC(=O)[C@]34CCC(C)(C)C[C@H]3C3=CC[C@@H]5[C@@]6(C)C[C@H](O)[C@H](O[C@@H]7O[C@H](CO)[C@@H](O)[C@H](O[C@@H]8O[C@H](CO)[C@@H](O)[C@H](O)[C@H]8O)[C@H]7O)C(CO)(CO)[C@@H]6CC[C@@]5(C)[C@]3(C)C[C@H]4O)OC[C@H](O)[C@@H]2O)[C@H](O)[C@H](O)[C@H]1O[C@@H]1OC[C@@H](O)[C@H](O[C@@H]2OC[C@](O)(CO)[C@H]2O)[C@H]1O` [Platycodin D2], the “229E Inhibition rate” value is listed as 4.5%. With `CCC(C)c1nccnc1OC` (stereo not shown) [2-Sec-butyl-3-methoxypyrazine], the “229E Inhibition rate” value is on record as 18.6%. On the same count and under the same terms, the same measure for `COc1ccc2cc3n(c(=O)c2c1OC)CCc1cc2c(cc1-3)OCO2` [Oxyberberine]: 37.5%; for `C=C1C(=O)[C@@]23[C@@H]4OC5O[C@@]2(O)[C@@H](O)[C@@H]2C(C)(C)CC[C@@H](O)[C@]52[C@@H]3CC[C@@H]14` [ponicidin]: 95.6%. For `O=C(/C=C/c1ccc(O)c(O)c1)OC[C@H]1O[C@@H](OCCc2ccc(O)c(O)c2)[C@H](O)[C@@H](O)[C@@H]1O` [Calceolarioside B], the “229E Inhibition rate” value came out at 10.8%. Still for that read-out and setting: the same measure for `COC(=O)[C@@H](Cc1ccc(O)c(O)c1)OC(=O)/C=C/c1ccc(O)c(O)c1` [Methyl rosmarinate]: 13%; for `COc1ccc([C@@H]2CC(=O)c3c(O)cc(O[C@@H]4O[C@H](CO[C@@H]5O[C@@H](C)[C@H](O)[C@@H](O)[C@H]5O)[C@@H](O)[C@H](O)[C@H]4O)cc3O2)cc1O` [Hesperidin]: 33.4%. Turning to `CC(C)NCC(O)COc1cccc2ccccc12` (stereo not shown) [Propranolol (hydrochloride)], for the setting “229E Inhibition rate, 24 h”, the “229E Inhibition rate” value was 21.5%. As to `COc1c2ccoc2c(OC)c2oc(=O)ccc12` [Isopimpinellin], the “229E Inhibition rate” value is reported as 15.5%. The same measure, in the same setting: the same measure for `c1ccc2c(c1)cc1ccc3cccc4ccc2c1c34` [Benzo[a]pyrene]: 24.5%; for `COc1ccc(O)cc1OC` [3,4-Dimethoxyphenol]: 20.6%. Turning to `COc1c2cc3c(c1OC)CCN(C)[C@@H]3Cc1ccc(cc1)Oc1cc3c(c(OC)c1OC)CCN(C)[C@@H]3Cc1ccc(cc1)O2` [Cycleanine], the “229E Inhibition rate” value is listed as 5.3%. Same read-out and setting: the same measure for `COc1cc2cc(Oc3ccc4ccc(=O)oc4c3)c(=O)oc2cc1O` [Daphnoretin]: 11.2%; for `C[C@]1(OC(=O)/C=C/c2ccccc2)C[C@@H](O)[C@]2(O)C=CO[C@@H](O[C@@H]3O[C@H](CO)[C@@H](O)[C@H](O)[C@H]3O)[C@@H]21` [Harpagoside]: 19.6%. The same measure, in the same setting: the same measure for `COc1ccc(-c2cc(=O)c3c(O)cc(O)c(-c4cc(-c5cc(=O)c6c(O)cc(O)cc6o5)ccc4OC)c3o2)cc1` [Isoginkgetin]: 6.1%. In the case of `CCCCC(CC)COC(=O)c1ccccc1C(=O)O` (stereo not shown) [Phthalic acid mono-2-ethylhexyl ester], the “229E Inhibition rate” value is listed as 19.1%.

For the compound `CC1(C)[C@@H]2CC[C@@]1(C)C(=O)C2` [(+)-Camphor], the “229E Inhibition rate” value is 14.5%.

For the compound `O=Cc1c[nH]c2ccccc12` [Indole-3-carboxaldehyde], the “229E Inhibition rate” value turned out to be 19%. For `Cn1cncc1C[C@H](NC(=O)CCN)C(=O)O` [Anserine], the “229E Inhibition rate” value (229E Inhibition rate, 24 h) is listed as 14.1%.

Take `C[C@@H]1C[C@H]2CC3=C(CCC(=O)N3)[C@@]3(C1)[C@@H]2CCCN3C` [α-Obscurine]: the “229E Inhibition rate” value is listed as 2.4%. On the same count and under the same terms, the same measure for `COc1cc(O)c2c(c1)oc(=O)c1c3cc(O)c(O)cc3oc21` [Wedelolactone]: 29.8%; for `C[C@H](CCC(=O)O)[C@H]1CC[C@H]2[C@@H]3CC=C4C[C@@H](O)CC[C@]4(C)[C@H]3CC[C@]12C` [3b-Hydroxy-5-cholenoic acid]: 19%; for `Nc1cc[nH]c(=O)n1` [Cytosine]: 23.8%. For `N[C@@H](CC(=O)O)C(=O)O` [L-Aspartic acid], under “229E Inhibition rate, 24 h”, the “229E Inhibition rate” value is 9.8%. With `CC1=CC(=O)CC(C)(C)C1` [Isophorone], the “229E Inhibition rate” value is on record as 14.6%. As for `OCc1ccc(CO)o1` [2,5-Furandimethanol], the “229E Inhibition rate” value worked out at 11.4%. Turning to `C[C@@H]1O[C@@H](O[C@H]2[C@H](O[C@H]3CC[C@]4(C)[C@H]5CC=C6[C@@H]7CC(C)(C)CC[C@]7(C(=O)O)CC[C@@]6(C)[C@]5(C)CC[C@H]4C3(C)C)OC[C@H](O[C@@H]3O[C@H](CO)[C@@H](O)[C@H](O)[C@H]3O)[C@@H]2O)[C@H](O)[C@H](O)[C@H]1O` [Hederacolchiside A1], the “229E Inhibition rate” value is given as 2.2%. `CC(=O)Oc1ccc(/C=C/c2cc(OC(C)=O)cc(OC(C)=O)c2)cc1` [Triacetylresveratrol]: the “229E Inhibition rate” value was determined as 0%. Still for that read-out and setting: the same measure for `C[C@@H]1O[C@@H](OC[C@H]2O[C@@H](Oc3cc(O)c4c(c3)O[C@H](c3ccc(O)cc3)CC4=O)[C@H](O)[C@@H](O)[C@@H]2O)[C@H](O)[C@H](O)[C@H]1O` [Narirutin]: 10.6%; for `CC(C)C(N)CC(=O)O` (stereo not shown) [3-Amino-4-methylpentanoic acid]: 10.1%. The same measure, in the same setting: the same measure for `CC1=C(O)C(=O)C=C2C1=CC=C1[C@@]2(C)CC[C@@]2(C)[C@@H]3C[C@](C)(C(=O)O)CC[C@]3(C)CC[C@]12C` [Tripterin]: 0.3%; for `COc1ccc(-c2oc3cc(O)cc(O)c3c(=O)c2O)cc1` [Kaempferide]: 13.1%; for `CC(C)(O)C1Cc2cc3cc(-c4cc(O)cc(O)c4)oc3cc2O1` (stereo not shown) [Moracin O]: 35.7%. In the case of `COC(=O)c1ccc(O)cn1` [Methyl 5-hydroxypyridine-2-carboxylate], the “229E Inhibition rate” value stood at 18.9%. Take `O=c1cc(-c2ccc(O)cc2)oc2cc(O)c([C@@H]3O[C@H](CO)[C@@H](O)[C@H](O)[C@H]3O)c(O)c12` [Isovitexin]: the “229E Inhibition rate” value amounted to 21%. The same measure, in the same setting: the same measure for `CC1(C)CC[C@]2(C)CC[C@]3(C)C(=CC[C@@H]4[C@@]5(C)CC[C@H](O)C(C)(C)[C@@H]5CC[C@]43C)[C@@H]2C1` [β-Amyrin]: 29.8%. Still for that read-out and setting: the same measure for `C[C@@H](CO)[C@@H]1CC[C@@]2(CC[C@]3(C)[C@H](CC[C@@H]4[C@@]5(C)CC[C@H](O[C@@H]6O[C@H](CO)[C@@H](O)[C@H](O)[C@H]6O[C@@H]6O[C@H](CO)[C@@H](O)[C@H](O)[C@H]6O)[C@@](C)(CO[C@@H]6O[C@H](CO)[C@@H](O)[C@H](O)[C@H]6O)[C@@H]5CC[C@]43C)[C@H]2O)CO1` [Hosenkoside A]: 34.5%; for `Nc1nc2c(ncn2[C@@H]2O[C@H](CO)[C@@H](O)[C@H]2O)c(=O)[nH]1` [Guanosine]: 36.7%; for `O=C(O)c1cccc2nc3ccccc3nc12` [Phenazine-1-carboxylic acid]: 16.2%.

Consider `CC(C)=CCC1=CC(=O)c2ccccc2C1=O` [Deoxylapachol], for which the “229E Inhibition rate” value stood at 8.4%.

Take `COc1cc2c(cc1OC)[C@@H]1Cc3ccc(OC)c(OC)c3CN1CC2` [Tetrahydropalmatine (hydrochloride)]: under “229E Inhibition rate, 24 h”, the “229E Inhibition rate” value was found to be 43.7%.

Consider `O=c1[nH]cnc2c1ncn2[C@@H]1O[C@H](COP(=O)(O)OP(=O)(O)OP(=O)(O)O)[C@@H](O)[C@H]1O` [Inosine-5'-triphosphate (trisodium salt)], for which the “229E Inhibition rate” value was found to be 8.5%.

For the compound `C=C1C(=O)O[C@@H]2/C=C(/C)[C@@H](OC(C)=O)C/C=C(/C=O)C[C@@H](OC(=O)/C(C)=C/CO)[C@@H]12` [Eupalinolide O], the “229E Inhibition rate” value is 19.5%. In the case of `O=c1ccc2ccc(O)cc2o1` [Umbelliferone], the “229E Inhibition rate” value came to 54.3%.

Take `Cc1c(C)c2c(c(C)c1O)CC[C@@](C)(CCCC(C)CCCC(C)CCCC(C)C)O2` (stereo in doubt) [rel-α-Vitamin E]: the “229E Inhibition rate” value is recorded as 10.9%. Same read-out and setting: the same measure for `O=C(O)c1cccc(O)c1O` [Pyrocatechuic acid]: 20.4%; for `CCCCCCCCCCCCCCC(=O)OC` [Methyl pentadecanoate]: 17.2%.

Source of the values: paper PMC12431657, “Discovery and mechanistic insights of dibenzoylmethane as a broad spectrum inhibitor of coronavirus” (PLOS Pathogens, 2025).
